Data reported in US4100274A (Imperial Chemical Industries Limited, priority 1976, dated 1978).

Assay: general procedure: solution-phase peptide synthesis; azide method (t-butyl nitrite/HCl); dicyclohexylcarbodiimide/1-hydroxybenzotriaz
Settings: coupling step

For “L-Pyroglutamyl-L-histidyl-L-tryptophyl-L-serine methyl ester”, the step yield was 70%.
